16 molecules from doi:10.1101/2024.09.19.613927 can be followed below.

Amino acid sequences for entries named in this document (tags omitted).
UniProt Q924T3: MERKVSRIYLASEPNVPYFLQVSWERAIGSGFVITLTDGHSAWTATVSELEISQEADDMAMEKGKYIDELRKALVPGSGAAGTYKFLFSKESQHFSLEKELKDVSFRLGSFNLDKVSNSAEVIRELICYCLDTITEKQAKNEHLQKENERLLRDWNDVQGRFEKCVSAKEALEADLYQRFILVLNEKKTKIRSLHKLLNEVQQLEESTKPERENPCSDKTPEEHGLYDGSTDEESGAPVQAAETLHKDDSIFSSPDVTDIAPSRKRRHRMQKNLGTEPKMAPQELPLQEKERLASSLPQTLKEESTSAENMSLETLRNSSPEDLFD
UniProt P23475: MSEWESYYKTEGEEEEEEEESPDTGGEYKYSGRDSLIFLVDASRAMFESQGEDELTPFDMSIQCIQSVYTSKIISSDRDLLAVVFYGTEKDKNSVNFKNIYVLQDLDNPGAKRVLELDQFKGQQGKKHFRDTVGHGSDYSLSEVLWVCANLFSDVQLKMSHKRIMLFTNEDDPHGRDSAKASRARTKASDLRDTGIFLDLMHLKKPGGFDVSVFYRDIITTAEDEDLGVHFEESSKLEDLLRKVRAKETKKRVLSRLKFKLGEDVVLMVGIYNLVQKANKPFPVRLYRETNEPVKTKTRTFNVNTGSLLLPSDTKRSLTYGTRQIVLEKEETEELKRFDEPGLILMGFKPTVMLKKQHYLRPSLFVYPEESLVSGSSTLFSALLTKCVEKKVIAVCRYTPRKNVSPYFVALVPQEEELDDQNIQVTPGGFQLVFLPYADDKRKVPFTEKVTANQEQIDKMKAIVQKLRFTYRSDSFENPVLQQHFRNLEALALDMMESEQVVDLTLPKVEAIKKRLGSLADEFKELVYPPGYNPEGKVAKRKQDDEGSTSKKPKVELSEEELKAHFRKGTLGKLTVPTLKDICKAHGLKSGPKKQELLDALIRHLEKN
UniProt P42858: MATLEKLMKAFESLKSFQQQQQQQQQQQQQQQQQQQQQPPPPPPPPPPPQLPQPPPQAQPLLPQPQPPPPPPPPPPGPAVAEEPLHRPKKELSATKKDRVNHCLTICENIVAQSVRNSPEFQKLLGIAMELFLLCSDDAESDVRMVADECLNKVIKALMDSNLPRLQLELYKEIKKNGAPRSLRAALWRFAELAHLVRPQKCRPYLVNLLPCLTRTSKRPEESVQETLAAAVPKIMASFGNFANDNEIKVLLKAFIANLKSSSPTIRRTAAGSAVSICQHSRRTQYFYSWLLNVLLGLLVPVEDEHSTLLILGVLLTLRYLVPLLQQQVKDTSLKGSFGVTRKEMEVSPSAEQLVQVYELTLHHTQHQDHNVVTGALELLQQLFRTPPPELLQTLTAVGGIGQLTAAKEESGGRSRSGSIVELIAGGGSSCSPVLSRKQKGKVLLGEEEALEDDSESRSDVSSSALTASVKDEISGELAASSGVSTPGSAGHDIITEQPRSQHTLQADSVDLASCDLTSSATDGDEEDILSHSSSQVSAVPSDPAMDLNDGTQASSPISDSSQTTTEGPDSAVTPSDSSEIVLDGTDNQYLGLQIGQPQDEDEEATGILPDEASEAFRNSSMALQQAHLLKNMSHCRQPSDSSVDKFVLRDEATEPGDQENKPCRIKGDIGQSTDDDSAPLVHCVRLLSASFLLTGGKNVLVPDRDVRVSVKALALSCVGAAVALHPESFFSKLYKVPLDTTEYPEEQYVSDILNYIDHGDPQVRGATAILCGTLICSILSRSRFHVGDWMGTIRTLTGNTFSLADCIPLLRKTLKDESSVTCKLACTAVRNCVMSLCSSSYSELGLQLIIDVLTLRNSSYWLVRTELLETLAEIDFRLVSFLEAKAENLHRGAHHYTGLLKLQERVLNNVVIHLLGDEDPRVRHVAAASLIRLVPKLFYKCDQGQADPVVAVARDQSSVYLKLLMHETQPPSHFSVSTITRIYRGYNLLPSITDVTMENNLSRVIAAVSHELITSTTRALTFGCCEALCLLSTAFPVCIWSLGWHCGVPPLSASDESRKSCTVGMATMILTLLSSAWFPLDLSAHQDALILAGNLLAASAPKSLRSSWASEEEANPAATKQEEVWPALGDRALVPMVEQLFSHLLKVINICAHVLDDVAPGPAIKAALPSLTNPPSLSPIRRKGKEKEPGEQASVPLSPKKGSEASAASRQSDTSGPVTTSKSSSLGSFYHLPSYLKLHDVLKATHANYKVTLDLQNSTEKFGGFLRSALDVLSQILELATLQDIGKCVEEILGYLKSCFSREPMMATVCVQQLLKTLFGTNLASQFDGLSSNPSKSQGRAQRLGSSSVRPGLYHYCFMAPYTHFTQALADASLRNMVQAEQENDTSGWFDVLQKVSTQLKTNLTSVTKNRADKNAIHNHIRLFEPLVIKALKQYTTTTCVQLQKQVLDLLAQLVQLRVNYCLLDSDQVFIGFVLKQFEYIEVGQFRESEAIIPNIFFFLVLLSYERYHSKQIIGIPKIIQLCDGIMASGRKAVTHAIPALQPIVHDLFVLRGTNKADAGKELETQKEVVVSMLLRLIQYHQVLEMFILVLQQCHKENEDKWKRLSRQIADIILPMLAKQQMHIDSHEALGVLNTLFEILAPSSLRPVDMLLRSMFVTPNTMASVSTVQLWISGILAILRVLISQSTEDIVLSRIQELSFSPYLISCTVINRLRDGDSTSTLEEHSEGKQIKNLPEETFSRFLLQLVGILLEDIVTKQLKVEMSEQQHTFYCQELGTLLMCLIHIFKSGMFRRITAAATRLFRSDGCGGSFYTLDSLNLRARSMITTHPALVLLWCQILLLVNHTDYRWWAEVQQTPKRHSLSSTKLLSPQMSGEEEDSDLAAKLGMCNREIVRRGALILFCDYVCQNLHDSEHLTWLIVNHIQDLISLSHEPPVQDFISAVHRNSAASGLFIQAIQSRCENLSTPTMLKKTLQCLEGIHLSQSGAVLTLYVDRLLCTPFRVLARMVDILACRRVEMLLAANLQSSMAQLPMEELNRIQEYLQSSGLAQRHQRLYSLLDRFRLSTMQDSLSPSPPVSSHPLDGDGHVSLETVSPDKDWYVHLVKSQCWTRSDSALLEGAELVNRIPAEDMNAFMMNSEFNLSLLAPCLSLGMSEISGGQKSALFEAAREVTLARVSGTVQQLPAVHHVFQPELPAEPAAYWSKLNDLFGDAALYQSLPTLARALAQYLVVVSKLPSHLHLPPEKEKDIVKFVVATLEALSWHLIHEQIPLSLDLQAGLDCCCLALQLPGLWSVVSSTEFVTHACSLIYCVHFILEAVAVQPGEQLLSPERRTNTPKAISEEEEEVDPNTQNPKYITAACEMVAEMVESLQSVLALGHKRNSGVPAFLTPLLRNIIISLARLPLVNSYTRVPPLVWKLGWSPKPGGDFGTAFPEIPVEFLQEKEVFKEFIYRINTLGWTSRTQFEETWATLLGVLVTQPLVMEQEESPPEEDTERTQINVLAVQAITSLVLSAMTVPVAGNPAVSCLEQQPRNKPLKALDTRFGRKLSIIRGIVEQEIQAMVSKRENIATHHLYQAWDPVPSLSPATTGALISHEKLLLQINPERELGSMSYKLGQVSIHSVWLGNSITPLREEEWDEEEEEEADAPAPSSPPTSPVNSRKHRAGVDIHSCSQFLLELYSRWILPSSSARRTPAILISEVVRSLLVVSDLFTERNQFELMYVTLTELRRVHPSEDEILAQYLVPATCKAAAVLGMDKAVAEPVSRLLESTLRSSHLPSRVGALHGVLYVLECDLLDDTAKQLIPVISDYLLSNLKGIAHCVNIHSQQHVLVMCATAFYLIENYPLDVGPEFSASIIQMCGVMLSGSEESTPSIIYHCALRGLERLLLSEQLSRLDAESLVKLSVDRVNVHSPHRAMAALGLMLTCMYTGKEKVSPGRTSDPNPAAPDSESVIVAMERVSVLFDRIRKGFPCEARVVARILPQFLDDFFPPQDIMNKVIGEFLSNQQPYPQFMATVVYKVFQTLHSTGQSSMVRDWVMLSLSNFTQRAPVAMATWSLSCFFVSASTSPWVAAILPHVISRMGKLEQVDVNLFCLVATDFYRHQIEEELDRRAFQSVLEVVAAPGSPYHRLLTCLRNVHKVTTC
UniProt Q3TKT4: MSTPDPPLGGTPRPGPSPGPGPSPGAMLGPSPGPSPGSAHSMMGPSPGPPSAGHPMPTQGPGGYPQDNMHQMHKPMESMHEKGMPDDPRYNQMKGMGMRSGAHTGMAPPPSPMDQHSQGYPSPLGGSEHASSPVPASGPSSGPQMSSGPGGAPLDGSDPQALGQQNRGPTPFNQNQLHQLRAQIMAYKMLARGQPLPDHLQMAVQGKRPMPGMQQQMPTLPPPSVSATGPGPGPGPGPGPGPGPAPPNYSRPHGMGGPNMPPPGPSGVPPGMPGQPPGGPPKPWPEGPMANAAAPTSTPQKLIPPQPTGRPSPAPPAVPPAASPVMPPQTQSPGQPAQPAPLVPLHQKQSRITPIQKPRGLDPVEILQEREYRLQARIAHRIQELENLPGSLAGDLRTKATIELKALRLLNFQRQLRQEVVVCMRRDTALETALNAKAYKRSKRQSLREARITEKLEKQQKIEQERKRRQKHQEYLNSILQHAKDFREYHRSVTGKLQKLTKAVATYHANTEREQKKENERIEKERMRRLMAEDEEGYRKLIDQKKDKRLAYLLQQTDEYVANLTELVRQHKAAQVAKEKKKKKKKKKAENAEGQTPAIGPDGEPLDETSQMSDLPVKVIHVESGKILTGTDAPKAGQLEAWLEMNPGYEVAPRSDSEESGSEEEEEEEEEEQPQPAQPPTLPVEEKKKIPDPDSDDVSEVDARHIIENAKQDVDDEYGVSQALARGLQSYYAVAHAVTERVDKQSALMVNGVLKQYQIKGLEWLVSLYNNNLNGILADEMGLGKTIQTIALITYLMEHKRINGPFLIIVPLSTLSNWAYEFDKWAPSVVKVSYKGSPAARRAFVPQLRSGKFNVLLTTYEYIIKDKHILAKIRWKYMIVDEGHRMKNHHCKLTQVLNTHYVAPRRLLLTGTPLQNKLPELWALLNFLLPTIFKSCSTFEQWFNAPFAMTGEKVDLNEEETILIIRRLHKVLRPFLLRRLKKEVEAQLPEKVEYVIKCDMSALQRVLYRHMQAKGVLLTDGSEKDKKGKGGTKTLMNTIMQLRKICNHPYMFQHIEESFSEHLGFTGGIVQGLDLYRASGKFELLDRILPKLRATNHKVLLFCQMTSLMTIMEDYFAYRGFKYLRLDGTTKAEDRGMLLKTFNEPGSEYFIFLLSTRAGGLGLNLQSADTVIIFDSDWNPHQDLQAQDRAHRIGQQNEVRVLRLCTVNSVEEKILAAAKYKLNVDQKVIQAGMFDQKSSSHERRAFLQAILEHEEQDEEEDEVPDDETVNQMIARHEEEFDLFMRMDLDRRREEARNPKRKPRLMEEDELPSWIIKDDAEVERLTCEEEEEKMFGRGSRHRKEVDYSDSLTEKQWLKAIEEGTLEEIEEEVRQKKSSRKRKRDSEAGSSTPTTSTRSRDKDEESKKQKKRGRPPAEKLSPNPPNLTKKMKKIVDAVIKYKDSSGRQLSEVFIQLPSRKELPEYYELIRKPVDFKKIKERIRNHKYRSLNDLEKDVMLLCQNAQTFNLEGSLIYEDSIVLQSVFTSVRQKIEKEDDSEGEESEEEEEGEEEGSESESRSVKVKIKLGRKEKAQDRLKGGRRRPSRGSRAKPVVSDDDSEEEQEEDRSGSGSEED
UniProt Q13426: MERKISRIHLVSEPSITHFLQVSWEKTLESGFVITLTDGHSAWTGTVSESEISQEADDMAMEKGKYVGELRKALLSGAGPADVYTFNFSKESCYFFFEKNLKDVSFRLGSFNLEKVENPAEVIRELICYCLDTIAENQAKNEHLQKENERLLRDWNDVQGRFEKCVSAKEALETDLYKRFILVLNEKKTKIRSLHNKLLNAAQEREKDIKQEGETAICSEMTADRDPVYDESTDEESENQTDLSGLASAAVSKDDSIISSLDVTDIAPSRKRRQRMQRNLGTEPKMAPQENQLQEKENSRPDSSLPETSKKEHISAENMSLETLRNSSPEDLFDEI
UniProt P28352: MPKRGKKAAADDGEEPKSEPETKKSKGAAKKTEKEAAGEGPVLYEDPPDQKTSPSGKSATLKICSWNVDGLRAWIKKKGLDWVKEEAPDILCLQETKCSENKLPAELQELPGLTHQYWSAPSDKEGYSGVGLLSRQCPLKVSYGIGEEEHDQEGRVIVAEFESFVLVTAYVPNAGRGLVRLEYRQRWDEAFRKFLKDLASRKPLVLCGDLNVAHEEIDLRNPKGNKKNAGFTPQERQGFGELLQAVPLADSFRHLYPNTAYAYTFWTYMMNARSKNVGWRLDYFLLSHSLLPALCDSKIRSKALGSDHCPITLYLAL

These are yes or no findings as the source states them, for the method shown. Binding seen in cells or lysates may run through a third protein. Some results given as binding are weak or reduced against the parent protein; the word gives no strength.

In test [1] the target is XRCC4, mouse (mouse (endogenous in mouse brain)) (UniProt Q924T3). Put plainly: co-IP.
Test [2] concerns the target huntingtin (HTT), mouse (mouse (endogenous in C57BL/6 brain)) (UniProt P42859). Briefly: co-IP.
For test [3], the target named is Ku70, mouse (mouse (endogenous in mouse brain)) (UniProt P23475). Put plainly: co-IP.
In test [4] the target is DNA-PKcs, mouse (mouse (endogenous in mouse brain)) (UniProt P97313). Briefly: co-IP.
Test [5] addresses huntingtin (HTT) (human (endogenous in SH-SY5Y)) (UniProt P42858). Briefly: proximity ligation.
Test [6] deals with FLAG-tagged BRG1 (FLAG-BRG1) (human) (UniProt P51532). Put plainly: co-IP.
Test [7] has as its target Brahma-Related Gene 1 (BRG1) (human (endogenous in SH-SY5Y)) (UniProt P51532). Put plainly: proximity ligation.
In test [8] the target is BRG1, mouse (mouse (endogenous in mouse brain)) (UniProt Q3TKT4). Briefly: co-IP.

In the case of “BRG1, mouse (from UniProt Q3TKT4 1-1613)”, the binding entry in test [1], in test [2], in test [3] and in test [4] was “binds” throughout.

In the case of “Cockayne Syndrome protein B (CSB) (from UniProt Q03468 1-1493)”, the binding result in test [5] is on record as “binds”.

As for “Cockayne Syndrome protein B (CSB), mouse (from UniProt F8VPZ5 1-1481)”, the binding entry in test [2] was “binds”.

Take “DNA-PKcs, mouse (from UniProt P97313 1-4128) (enzyme)”: the binding entry in test [2] is “binds”.

As to “DNA-dependent protein kinase catalytic subunit (DNA-PKcs) (from UniProt P78527 1-4128) (enzyme)”, the binding entry in test [6] and in test [7] was “binds” throughout.

Take “Ku70 (XRCC6) (from UniProt P12956 1-609)”: the binding entry in test [5] is on record as “binds”.

In the case of Ku70, mouse (from UniProt P23475 1-608), the binding result in test [2] is “binds”.

As for “Ku80 (XRCC5) (from UniProt P13010 1-732)”, the binding entry in test [5] is reported as “binds”.

On to “PARP1 (from UniProt P09874 1-1014) (enzyme)”, for which the binding result in test [5] and in test [7] was “binds” each time.

With “PNKP (polynucleotide kinase 3'-phosphatase) (from UniProt Q96T60 1-521) (enzyme)”, the values for the binding entry in test [6] and in test [5] were “no binding” and “binds”, respectively.

For the molecule “PNKP, mouse (from UniProt Q9JLV6 1-522) (enzyme)”, the binding entry in test [2] is recorded as “binds”.

On to XRCC4 (from UniProt Q13426 1-336), for which the binding entry in test [5] is “binds”.

Regarding “XRCC4, mouse (from UniProt Q924T3 1-326)”, the binding result in test [2] is “binds”.

Regarding “apurinic-apyrimidinic endonuclease 1 (APE1), mouse (from UniProt P28352 1-317) (enzyme)”, the binding result in test [1], in test [3] and in test [4] was “no binding” each time.

For “huntingtin (HTT), mouse (from UniProt P42859 1-3119)”, the binding entry in test [1], in test [8], in test [3] and in test [4] was “binds” in each case.

B1: DNA LIG IV, mouse (enzyme, UniProt Q8BTF7 1-911)
chain: MASSQTSQTVAAHVPFADLCSTLERIQKGKDRAEKIRHFKEFLDSWRKFHDALHKNRKDVTDSFYPAMRLILPQLERERMAYGIKETMLAKLYIELLNLPREGKDAQKLLNYRTPSGARTDAGDFAMIAYFVLKPRCLQKGSLTIQQVNELLDLVASNNSGKKKDLVKKSLLQLITQSSALEQKWLIRMIIKDLKLGISQQTIFSIFHNDAVELHNVTTDLEKVCRQLHDPSVGLSDISITLFSAFKPMLAAVADVERVEKDMKQQSFYIETKLDGERMQMHKDGALYRYFSRNGYNYTDQFGESPQEGSLTPFIHNAFGTDVQACILDGEMMAYNPTTQTFMQKGVKFDIKRMVEDSGLQTCYSVFDVLMVNKKKLGRETLRKRYEILSSTFTPIQGRIEIVQKTQAHTKKEVVDALNDAIDKREEGIMVKHPLSIYKPDKRGEGWLKIKPEYVSGLMDELDVLIVGGYWGKGSRGGMMSHFLCAVAETPPPGDRPSVFHTLCRVGSGYTMKELYDLGLKLAKYWKPFHKKSPPSSILCGTEKPEVYIEPQNSVIVQIKAAEIVPSDMYKTGSTLRFPRIEKIRDDKEWHECMTLGDLEQLRGKASGKLATKHLHVGDDDEPREKRRKPISKTKKAIRIIEHLKAPNLSNVNKVSNVFEDVEFCVMSGLDGYPKADLENRIAEFGGYIVQNPGPDTYCVIAGSENVRVKNIISSDKNDVVKPEWLLECFKTKTCVPWQPRFMIHMCPSTKQHFAREYDCYGDSYFVDTDLDQLKEVFLGIKPSEQQTPEEMAPVIADLECRYSWDHSPLSMFRHYTIYLDLYAVINDLSSRIEATRLGITALELRFHGAKVVSCLSEGVSHVIIGEDQRRVTDFKIFRRMLKKKFKILQESWVSDSVDKGELQEENQYLL
With B1, the binding entry in test [2] is “binds”.
